Experimental data from US9605025B2, “Antagonist peptide of the bond between CD47 and a protein belonging to the thrombospondin family” (Universite de Reims Champagne Ardenne, priority 2011, dated 2017).
These are yes or no findings as the source states them, for the method shown. Some entries that bind do so weakly or less than the wild type.

Amino acid sequences for entries named in this document (tags omitted). Residues count along the entry.
UniProt Q08722, residues 19-323: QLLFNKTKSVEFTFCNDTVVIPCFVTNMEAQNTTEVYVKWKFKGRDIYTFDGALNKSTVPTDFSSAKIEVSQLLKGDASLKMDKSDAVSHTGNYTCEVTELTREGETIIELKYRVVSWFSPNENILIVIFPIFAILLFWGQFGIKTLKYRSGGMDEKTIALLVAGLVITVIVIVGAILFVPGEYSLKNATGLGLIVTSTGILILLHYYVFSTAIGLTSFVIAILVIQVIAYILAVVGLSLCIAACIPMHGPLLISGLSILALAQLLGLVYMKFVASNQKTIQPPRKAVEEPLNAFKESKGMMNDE

Molecular target: CD47 receptor (UniProt Q08722)
Assay: inferred by the filing from FTC-133 viability assay with 4N1 and CD47-blocking antibody B6H12

Binder: KRFYVVMWK [peptide 4N1 (…)]
- binding: binds
